Assay results from the supplement of paper PMC7024190.
Where a name gives a salt, the structure may show the parent alone. This is one part of the list. Single values are uncertain here, since repeats match poorly.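 A first-round screen of about ten thousand compounds sought those raising reporter output, using human embryonic kidney cells briefly transfected with a plasmid carrying a Renilla luciferase gene driven by the HSV-TK promoter.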

The molecules below were run on HEK 293FT (assay: log relative Renilla luciferase luminescence (reporter expression vs reference, reference not stated) (log (base not stated)); higher = higher recombinant reporter expression). Conditions: 10 µM; time after transfection 48 h.

`C[C@H](CCC(=O)O)[C@H]1CC[C@H]2[C@@H]3[C@@H](O)C[C@@H]4C[C@H](O)CC[C@]4(C)[C@H]3CC[C@]12C` [ursodiol] and `CCC(=O)Oc1ccc2c(c1)CC[C@@H]1[C@@H]2CC[C@]2(C)[C@@H](OC(=O)CC)CC[C@@H]12` [estradiol dipropionate] are within 0.2 log units of each other in log: -0.0153 for the first, -0.0613 for the second.

`O=C(CCCN1CCN(c2ccccn2)CC1)c1ccc(F)cc1` [azaperone] and `CN1CCN(C(c2ccccc2)c2ccccc2)CC1` [cyclizine] are within 0.2 log units of each other in log: 0.0463 for the first, 0.00792 for the second.

`CN1CCC(=C2c3ccccc3Sc3ccccc32)CC1` [pimethixene maleate] and `Nc1c2ccccc2nc2ccccc12` [aminacrine] are within 0.2 log units of each other in log: 0.0689 for the first, -0.125 for the second.

`COC1=CC(=O)C(C(=O)c2ccccc2)=CC1=O` [2-benzoyl-5-methoxybenzoquinone] and `C=C[C@@H](C1=CC(=O)C(OC)=C(OC)C1=O)c1ccccc1` [3,4-dimethoxydalbergione] are within 0.2 log units of each other in log: -0.114 for the first, 0.0313 for the second.

First: N[C@@H](Cc1cc(I)c(Oc2ccc(O)c(I)c2)c(I)c1)C(=O)O [liothyronine]
Second: COc1ccc2c(=O)c(-c3ccc(O)cc3)coc2c1 [isoformononetin]
The log of the first is higher: 0.195 for the first, -0.043 for the second.

`N[C@@H](Cc1cc(I)c(Oc2ccc(O)c(I)c2)c(I)c1)C(=O)O` [liothyronine (l- isomer) sodium] and `COc1cc(O)c2c(c1)C(=O)c1cc(C)cc(O)c1C2=O` [physcion] are within 0.2 log units of each other in log: -0.0372 for the first, 0.033 for the second.

`C(=C\c1ccccc1)/CN1CCN(C(c2ccccc2)c2ccccc2)CC1` [cinnarazine] and `O=C(O)c1ccccc1C(=O)Nc1ccc(S(=O)(=O)Nc2nccs2)cc1` [phthalylsulfathiazole] are within 0.2 log units of each other in log: -0.0614 for the first, 0.0305 for the second.

`Cc1c(-c2cnccn2)ssc1=S` [oltipraz] and `S=c1ccss1` [3h-1,2-dithiole-3-thione] are within 0.2 log units of each other in log: -0.0484 for the first, 0.133 for the second.

`C[C@@H]1C[C@H]2[C@@H]3CCC4=CC(=O)C=C[C@]4(C)[C@@]3(F)[C@@H](O)C[C@]2(C)[C@@]1(O)C(=O)COP(=O)(O)O` [dexamethasone sodium phosphate] and `CC1(C)O[C@@H]2C[C@H]3[C@@H]4CCC5=CC(=O)C=C[C@]5(C)[C@H]4[C@@H](O)C[C@]3(C)[C@]2(C(=O)CO)O1` [desonide] are within 0.2 log units of each other in log: -0.182 for the first, 0.00864 for the second.

`CCN(CC)CCNC(C(=O)OCCC(C)C)c1ccccc1` (stereo unspecified) [camylofine dihydrochloride] and `CCN(CC)CCOC(=O)C(Cc1cccc2ccccc12)CC1CCCO1` (stereo unspecified) [nafronyl oxalate] are within 0.2 log units of each other in log: 0.0552 for the first, 0.0832 for the second.

`C[C@]12CC[C@@H]3c4ccc(OC(=O)c5ccccc5)cc4CC[C@H]3[C@@H]1CC[C@@H]2O` [estradiol benzoate] and `CC1(C)S[C@@H]2[C@H](NC(=O)C(C(=O)O)c3ccccc3)C(=O)N2[C@H]1C(=O)O` (stereo partly specified) [carbenicillin disodium] are within 0.2 log units of each other in log: -0.038 for the first, -0.236 for the second.

Going from `OCCN(CCO)c1nc(N2CCCCC2)c2nc(N(CCO)CCO)nc(N3CCCCC3)c2n1` [dipyridamole] to `CN(Cc1cnc2nc(N)nc(N)c2n1)c1ccc(C(=O)NC(CCC(=O)O)C(=O)O)cc1` (racemic) [methotrexate(+/-)], the log falls from -0.216 to -0.559.

`C[N+](C)(C)CC(=O)O` [betaine hydrochloride] and `CCOC(=O)n1ccn(C)c1=S` [carbimazole] are within 0.2 log units of each other in log: -0.0648 for the first, -0.000954 for the second.

First: CC(C)=CCC/C(C)=C/CC/C(C)=C/CO [farnesol]
Second: CC(C)OC(=O)CCC/C=C\C[C@@H]1[C@@H](/C=C/[C@@H](O)COc2cccc(C(F)(F)F)c2)[C@H](O)C[C@@H]1O [travoprost]
The log of the first is higher: 0.146 for the first, -0.0803 for the second.

`Cc1c(C(=O)O)c(O)cc2c1C(=O)c1c(O)c([C@@H]3O[C@H](CO)[C@@H](O)[C@H](O)[C@H]3O)c(O)c(O)c1C2=O` [carminic acid] and `CC1(C)S[C@@H]2[C@H](NC(=O)[C@H](C(=O)O)c3ccsc3)C(=O)N2[C@H]1C(=O)O` [ticarcillin disodium] are within 0.2 log units of each other in log: 0.0214 for the first, 0.0567 for the second.

`CC(C)(C)C(=O)C(Oc1ccc(Cl)cc1)n1ccnc1` (stereo unspecified) [climbazole] and `CCN(CC)CCOc1ccc2c(c1)C(=O)c1cc(OCCN(CC)CC)ccc1-2` [tilorone] are within 0.2 log units of each other in log: 0.108 for the first, 0.194 for the second.

`Cc1ccccc1OCC(O)CO` (stereo unspecified) [mephenesin] and `C[C@H](N)[C@H](O)c1cccc(O)c1` [metaraminol bitartrate] are within 0.2 log units of each other in log: -0.0516 for the first, -0.0193 for the second.

`c1ccc2c(c1)CN1CCCC1=N2` [deoxypeganine hydrochloride] and `Cc1cc(NS(=O)(=O)c2ccc(N)cc2)no1` [sulfamethoxazole] are within 0.2 log units of each other in log: 0.131 for the first, 0.0849 for the second.

Compared with `O=C1CN(/N=C/c2ccc([N+](=O)[O-])o2)C(=O)N1` [nitrofurantoin], `O=C1CN(/N=C/c2ccc(-c3ccc([N+](=O)[O-])cc3)o2)C(=O)N1` [dantrolene sodium] is higher in log: -1.61 for the first, -0.145 for the second.

`CC1(O)CCC(C(C)(C)O)CC1` (stereo unspecified) [terpene hydrate] and `C=C[C@@]1(C)CC(=O)[C@]2(O)[C@@]3(C)[C@@H](O)CCC(C)(C)[C@@H]3[C@H](O)[C@H](OC(C)=O)[C@@]2(C)O1` [colforsin] are within 0.2 log units of each other in log: 0.000491 for the first, 0.146 for the second.

`CN[C@@H]1[C@@H](O)[C@@H](O[C@@H]2[C@@H](O)[C@H](O[C@H]3OC(CN)=CC[C@H]3N)[C@@H](N)C[C@H]2N)OC[C@]1(C)O` [sisomicin sulfate] and `CC[C@H]1OC(=O)C[C@@H](O)[C@H](C)[C@@H](O[C@@H]2O[C@H](C)[C@@H](O[C@H]3C[C@@](C)(O)[C@@H](O)[C@H](C)O3)[C@H](N(C)C)[C@H]2O)[C@@H](CC=O)C[C@@H](C)C(=O)/C=C/C(C)=C/[C@@H]1CO[C@@H]1O[C@H](C)[C@@H](O)[C@@H](OC)[C@H]1OC` [tylosin tartrate] are within 0.2 log units of each other in log: 0.0335 for the first, 0.0336 for the second.

Compared with `O=C(CCCCCCC(=O)Nc1ccccc1)NO` [vorinostat], `COc1ccc(C=CC(=O)O)cc1OC` [3,4-dimethoxycinnamic acid] is lower in log: 0.313 for the first, 0.0192 for the second.

`COC(=O)CC1C(C)(C)C(OC(C)=O)[C@@H]2[C@@H](OC(C)=O)[C@]34O[C@@]2(O)[C@]1(C)C3CC[C@]1(C)C4=CC(=O)O[C@H]1c1ccoc1` (stereo partly specified) [xylocarpus a] and `CCN(CC)C(=S)SSC(=S)N(CC)CC` [disulfiram] are within 0.2 log units of each other in log: -0.139 for the first, 0.0331 for the second.
